Laboratory results taken from PMC6405874, “Development of a novel short 12-meric papiliocin-derived peptide that is effective against Gram-negative sepsis” (Scientific Reports, 2019).

Assays:
Gram-negative bacteria = settings: HC10 / GM of Gram-negative MICs
Method: (§1) The antimicrobial activities of Pap12 peptides were tested against four standard Gram-negative bacteria (E. coli, Pseudomonas aeruginosa, Acinetobacter baumannii, and Salmonella typhimurium), three standard Gram-positive bacteria (Staphylococcus aureus, Bacillus subtilis, and Staphylococcus epidermidis), and five MDR bacteria (MDREC CCARM 1229, MDRPA CCARM 2002, MDRAB CCARM 12035, MDRST CCARM 8007, and MRSA CCARM 3126) using the microbroth dilution method. The relative antibacterial activities were compared based on geometric means of MICs (GM).
(§2) The therapeutic index (TI) was calculated (Table 2) using HC10, the peptide concentration required to induce 10% hemolysis.
(§3) Peptides were treated with 2 × 10^6 CFU/mL bacterial suspensions in 1% peptone media for 16 h at 37 °C.

Gram-positive bacteria = settings: HC10 / GM of Gram-positive MICs
Method: as §1, §2, §3

Row | Compound | Therapeutic index = HC10/MIC, Gram-negative bacteria (Gram-negative bacteria) | Therapeutic index = HC10/MIC, Gram-positive bacteria (Gram-positive bacteria)
1 | CC[C@H](C)[C@H](NC(=O)CN)C(=O)NCC(=O)N[C@@H](C)C(=O)N[C@H](C(=O)N[C@@H](CC(C)C)C(=O)N[C@@H](CCCCN)C(=O)N[C@H](C(=O)N[C@@H](CC(C)C)C(=O)N[C@H](C(=O)N[C@H](C(=O)NCC(=O)N[C@@H](CC(C)C)C(=O)N1CCC[C@H]1C(=O)N[C@@H](C)C(=O)N[C@@H](CC(C)C)C(=O)N[C@H](C(=O)N[C@@H](CO)C(=O)N[C@@H](Cc1c[nH]c2ccccc12)C(=O)N[C@H](C(=O)N[C@@H](CCCCN)C(=O)N[C@@H](CCCNC(=N)N)C(=O)N[C@@H](CCCCN)C(=O)N[C@@H](CCCNC(=N)N)C(=O)N[C@@H](CCC(N)=O)C(=O)N[C@@H](CCC(N)=O)C(N)=O)[C@@H](C)CC)[C@@H](C)CC)[C@@H](C)O)[C@@H](C)O)C(C)C)C(C)C [Melittin, reference compound] | 0.1 | 0.3
2 | RWKIFKKAAKKA-NH2 [Pap12-4] | 9.1 | 9.1
3 | RWKIFKKAAKKG-NH2 [Pap12-2] | 11.1 | 10.0
4 | RWKIFKKIEKVG-NH2 [Pap12-1] | 5.7 | 3.8
5 | RWKIFKKVVKKA-NH2 [Pap12-5] | 14.3 | 14.3
6 | RWKIFKKVVKKG-NH2 [Pap12-3] | 12.5 | 14.3
7 | RWKIFKKVVKKW-NH2 [Pap12-6] | 16.7 | 14.3

No end group written: not given here.
